Measurements taken from the supplement of paper PMC10849652.
The list shows a part of the results.

The chains behind the UniProt entries cited, without tags or fusion partners. Where a name states a change or a piece, a line headed by the entry shows the natural chain unless it says otherwise.
UniProt O43813, whole entry, looked up: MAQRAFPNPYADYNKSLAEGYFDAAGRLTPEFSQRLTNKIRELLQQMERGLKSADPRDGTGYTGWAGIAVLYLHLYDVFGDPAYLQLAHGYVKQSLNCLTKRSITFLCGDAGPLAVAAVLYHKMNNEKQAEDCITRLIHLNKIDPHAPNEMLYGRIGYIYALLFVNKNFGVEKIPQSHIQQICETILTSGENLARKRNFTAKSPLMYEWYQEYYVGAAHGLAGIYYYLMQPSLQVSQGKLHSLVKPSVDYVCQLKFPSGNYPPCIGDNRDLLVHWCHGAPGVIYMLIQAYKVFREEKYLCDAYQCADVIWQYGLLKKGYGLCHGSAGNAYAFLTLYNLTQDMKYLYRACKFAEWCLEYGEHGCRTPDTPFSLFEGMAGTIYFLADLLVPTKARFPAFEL
UniProt A5PL33: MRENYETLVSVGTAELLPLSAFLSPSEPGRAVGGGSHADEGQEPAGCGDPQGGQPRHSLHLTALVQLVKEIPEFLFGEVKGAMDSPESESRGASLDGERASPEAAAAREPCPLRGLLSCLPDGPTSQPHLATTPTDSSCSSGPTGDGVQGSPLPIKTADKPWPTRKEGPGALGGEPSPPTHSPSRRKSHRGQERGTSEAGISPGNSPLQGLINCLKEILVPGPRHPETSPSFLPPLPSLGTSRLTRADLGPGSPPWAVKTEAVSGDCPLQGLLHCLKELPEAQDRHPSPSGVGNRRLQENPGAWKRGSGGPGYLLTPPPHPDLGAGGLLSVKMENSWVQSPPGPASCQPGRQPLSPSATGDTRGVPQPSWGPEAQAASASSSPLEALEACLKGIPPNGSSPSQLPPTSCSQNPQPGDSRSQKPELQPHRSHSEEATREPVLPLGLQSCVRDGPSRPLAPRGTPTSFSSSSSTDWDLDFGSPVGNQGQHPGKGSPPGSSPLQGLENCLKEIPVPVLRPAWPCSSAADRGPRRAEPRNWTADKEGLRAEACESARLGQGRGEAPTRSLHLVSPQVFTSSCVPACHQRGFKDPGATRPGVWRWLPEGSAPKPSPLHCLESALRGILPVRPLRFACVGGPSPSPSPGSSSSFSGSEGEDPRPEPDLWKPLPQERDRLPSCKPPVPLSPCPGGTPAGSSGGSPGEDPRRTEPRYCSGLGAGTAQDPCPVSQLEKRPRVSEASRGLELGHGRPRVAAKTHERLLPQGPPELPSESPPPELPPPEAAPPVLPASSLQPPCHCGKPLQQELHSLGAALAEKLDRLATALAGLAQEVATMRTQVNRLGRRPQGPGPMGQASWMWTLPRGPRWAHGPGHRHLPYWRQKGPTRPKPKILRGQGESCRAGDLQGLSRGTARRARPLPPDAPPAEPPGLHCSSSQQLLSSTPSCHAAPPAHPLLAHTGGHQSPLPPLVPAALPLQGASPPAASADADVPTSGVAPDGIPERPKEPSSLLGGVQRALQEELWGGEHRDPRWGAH
UniProt P13473: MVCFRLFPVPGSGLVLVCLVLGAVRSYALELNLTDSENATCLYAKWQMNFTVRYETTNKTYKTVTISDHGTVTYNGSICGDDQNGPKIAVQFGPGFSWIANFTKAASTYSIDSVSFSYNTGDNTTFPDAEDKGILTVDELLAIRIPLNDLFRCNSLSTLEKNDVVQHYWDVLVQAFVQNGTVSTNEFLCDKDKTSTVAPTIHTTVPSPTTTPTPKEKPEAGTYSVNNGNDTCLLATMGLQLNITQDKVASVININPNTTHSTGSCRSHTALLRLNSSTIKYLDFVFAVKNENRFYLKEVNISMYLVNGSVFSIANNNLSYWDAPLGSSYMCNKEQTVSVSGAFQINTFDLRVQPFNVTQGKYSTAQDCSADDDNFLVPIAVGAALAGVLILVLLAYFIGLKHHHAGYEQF
UniProt P33176: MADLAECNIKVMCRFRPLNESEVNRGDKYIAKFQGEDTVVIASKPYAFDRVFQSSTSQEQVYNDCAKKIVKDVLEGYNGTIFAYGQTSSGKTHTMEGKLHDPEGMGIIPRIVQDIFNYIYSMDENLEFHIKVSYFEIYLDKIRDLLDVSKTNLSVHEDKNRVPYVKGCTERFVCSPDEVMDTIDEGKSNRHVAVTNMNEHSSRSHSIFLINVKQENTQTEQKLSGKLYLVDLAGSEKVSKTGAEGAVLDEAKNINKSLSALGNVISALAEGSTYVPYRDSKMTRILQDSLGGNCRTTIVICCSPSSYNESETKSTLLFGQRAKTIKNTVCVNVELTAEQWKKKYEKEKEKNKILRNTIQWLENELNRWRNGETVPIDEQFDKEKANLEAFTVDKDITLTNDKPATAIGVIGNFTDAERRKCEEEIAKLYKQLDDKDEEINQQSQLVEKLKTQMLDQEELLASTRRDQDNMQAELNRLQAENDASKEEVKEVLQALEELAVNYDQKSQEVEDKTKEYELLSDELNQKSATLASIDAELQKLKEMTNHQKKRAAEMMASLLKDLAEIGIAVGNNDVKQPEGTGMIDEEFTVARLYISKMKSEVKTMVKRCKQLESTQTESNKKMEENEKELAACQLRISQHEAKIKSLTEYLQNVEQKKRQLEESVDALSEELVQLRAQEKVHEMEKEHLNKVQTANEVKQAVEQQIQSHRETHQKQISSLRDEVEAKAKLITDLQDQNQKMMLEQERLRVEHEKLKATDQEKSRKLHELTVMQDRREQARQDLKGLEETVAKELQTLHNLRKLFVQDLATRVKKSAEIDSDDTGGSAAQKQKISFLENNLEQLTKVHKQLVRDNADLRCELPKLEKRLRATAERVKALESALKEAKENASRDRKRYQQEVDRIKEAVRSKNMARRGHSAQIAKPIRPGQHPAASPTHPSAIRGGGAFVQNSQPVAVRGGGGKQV
UniProt Q9NS87: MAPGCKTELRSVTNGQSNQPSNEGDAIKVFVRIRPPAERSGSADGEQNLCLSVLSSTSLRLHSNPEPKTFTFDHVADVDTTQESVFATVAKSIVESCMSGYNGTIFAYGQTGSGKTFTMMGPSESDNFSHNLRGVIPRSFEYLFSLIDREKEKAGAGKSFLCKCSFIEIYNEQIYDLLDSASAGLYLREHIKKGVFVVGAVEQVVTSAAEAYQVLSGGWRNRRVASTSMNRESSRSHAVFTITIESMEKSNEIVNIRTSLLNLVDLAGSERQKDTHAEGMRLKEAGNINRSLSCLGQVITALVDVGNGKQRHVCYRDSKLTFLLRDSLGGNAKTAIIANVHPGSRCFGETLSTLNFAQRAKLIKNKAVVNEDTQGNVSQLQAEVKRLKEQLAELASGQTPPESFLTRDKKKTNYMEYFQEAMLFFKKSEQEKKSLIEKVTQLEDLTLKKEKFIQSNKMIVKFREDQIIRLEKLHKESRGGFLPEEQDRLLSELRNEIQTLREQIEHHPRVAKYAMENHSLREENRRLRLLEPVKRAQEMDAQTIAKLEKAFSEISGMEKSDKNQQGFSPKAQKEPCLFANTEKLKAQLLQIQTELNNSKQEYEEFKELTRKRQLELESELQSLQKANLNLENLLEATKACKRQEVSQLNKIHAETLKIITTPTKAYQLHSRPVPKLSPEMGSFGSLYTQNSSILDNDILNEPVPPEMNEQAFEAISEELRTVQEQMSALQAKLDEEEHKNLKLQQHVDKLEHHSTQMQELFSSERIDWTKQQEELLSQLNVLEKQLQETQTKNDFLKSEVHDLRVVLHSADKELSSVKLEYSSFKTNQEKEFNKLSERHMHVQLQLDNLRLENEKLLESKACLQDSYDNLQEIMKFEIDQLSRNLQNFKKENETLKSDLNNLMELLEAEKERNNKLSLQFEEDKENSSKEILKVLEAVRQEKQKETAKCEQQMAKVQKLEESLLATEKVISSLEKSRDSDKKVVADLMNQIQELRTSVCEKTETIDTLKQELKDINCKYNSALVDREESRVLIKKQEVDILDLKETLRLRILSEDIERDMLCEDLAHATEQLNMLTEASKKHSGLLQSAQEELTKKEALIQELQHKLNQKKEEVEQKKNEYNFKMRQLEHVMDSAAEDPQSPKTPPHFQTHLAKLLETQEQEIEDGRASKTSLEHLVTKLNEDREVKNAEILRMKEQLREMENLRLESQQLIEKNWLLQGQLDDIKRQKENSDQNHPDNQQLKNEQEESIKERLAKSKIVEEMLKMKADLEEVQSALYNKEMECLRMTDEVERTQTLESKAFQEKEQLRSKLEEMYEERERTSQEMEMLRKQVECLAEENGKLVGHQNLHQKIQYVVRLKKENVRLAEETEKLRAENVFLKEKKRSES
UniProt P41229: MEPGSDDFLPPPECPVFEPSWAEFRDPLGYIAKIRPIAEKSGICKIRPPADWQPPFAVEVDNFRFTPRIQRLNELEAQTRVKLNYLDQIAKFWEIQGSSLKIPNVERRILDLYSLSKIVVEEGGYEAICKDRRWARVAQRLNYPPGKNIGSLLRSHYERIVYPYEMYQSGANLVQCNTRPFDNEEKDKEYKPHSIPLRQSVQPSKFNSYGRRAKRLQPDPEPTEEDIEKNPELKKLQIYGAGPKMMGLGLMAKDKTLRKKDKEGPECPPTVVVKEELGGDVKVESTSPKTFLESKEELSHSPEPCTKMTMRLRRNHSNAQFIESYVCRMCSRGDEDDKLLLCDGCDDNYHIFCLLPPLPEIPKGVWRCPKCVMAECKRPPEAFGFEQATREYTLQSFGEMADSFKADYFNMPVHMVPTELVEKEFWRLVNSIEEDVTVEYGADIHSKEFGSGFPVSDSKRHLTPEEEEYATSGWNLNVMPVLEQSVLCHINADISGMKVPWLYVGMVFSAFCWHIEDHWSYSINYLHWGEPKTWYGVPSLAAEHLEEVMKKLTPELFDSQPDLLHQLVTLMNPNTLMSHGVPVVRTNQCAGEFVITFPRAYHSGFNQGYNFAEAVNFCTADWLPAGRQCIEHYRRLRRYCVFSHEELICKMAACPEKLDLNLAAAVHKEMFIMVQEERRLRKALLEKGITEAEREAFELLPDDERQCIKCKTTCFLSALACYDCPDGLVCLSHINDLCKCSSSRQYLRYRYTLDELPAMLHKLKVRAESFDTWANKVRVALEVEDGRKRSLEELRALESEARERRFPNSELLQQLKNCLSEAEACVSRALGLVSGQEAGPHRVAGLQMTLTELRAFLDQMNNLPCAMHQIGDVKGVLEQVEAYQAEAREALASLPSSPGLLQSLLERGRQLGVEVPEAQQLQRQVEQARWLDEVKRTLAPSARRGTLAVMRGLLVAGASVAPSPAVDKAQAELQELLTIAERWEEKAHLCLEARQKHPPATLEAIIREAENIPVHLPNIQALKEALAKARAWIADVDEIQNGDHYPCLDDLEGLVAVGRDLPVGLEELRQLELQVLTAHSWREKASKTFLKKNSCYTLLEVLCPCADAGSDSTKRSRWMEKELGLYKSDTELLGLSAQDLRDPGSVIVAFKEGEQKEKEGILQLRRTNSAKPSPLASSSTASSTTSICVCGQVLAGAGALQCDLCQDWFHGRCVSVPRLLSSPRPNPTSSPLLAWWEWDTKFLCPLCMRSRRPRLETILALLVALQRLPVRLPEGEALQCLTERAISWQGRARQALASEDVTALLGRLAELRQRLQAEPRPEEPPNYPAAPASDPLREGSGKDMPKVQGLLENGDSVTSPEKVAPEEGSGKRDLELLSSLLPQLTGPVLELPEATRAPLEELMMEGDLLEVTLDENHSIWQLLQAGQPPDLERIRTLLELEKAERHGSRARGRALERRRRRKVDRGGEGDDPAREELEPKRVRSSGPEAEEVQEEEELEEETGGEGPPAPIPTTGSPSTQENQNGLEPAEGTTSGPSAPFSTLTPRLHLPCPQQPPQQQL
UniProt Q96EM0: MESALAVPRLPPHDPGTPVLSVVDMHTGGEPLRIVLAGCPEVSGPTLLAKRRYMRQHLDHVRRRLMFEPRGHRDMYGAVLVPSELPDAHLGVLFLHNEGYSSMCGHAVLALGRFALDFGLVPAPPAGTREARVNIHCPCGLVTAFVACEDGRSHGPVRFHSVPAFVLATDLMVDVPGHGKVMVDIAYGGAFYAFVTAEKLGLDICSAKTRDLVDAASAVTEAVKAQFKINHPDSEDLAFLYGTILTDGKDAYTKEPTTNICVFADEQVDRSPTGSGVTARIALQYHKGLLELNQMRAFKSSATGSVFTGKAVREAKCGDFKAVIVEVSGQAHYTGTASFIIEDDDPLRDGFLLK
UniProt Q6IAA8, whole entry, looked up: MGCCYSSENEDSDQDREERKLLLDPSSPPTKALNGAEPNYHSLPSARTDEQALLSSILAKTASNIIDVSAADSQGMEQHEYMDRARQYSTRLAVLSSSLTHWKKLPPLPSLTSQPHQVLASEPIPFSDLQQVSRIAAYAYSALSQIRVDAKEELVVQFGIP
UniProt Q53H82: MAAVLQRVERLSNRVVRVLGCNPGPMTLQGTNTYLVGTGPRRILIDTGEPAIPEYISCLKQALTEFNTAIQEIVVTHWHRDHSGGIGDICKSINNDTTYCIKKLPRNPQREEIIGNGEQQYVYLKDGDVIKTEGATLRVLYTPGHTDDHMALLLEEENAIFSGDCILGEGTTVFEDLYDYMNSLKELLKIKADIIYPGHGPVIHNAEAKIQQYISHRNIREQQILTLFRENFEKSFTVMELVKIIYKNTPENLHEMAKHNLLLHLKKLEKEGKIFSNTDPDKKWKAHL

Experiments:
Assay in all cases: log2 fold change, soluble protein after heating vs DMSO (PISA); higher = thermal stabilisation; K562 lysate, 10 uM; active = over 0.2 and 3.5 SD of the protein, either way, in both replicates (recomputed)
[1] = compound: NCC(=O)Nc1ccc(-n2nc(C(F)(F)F)cc2-c2ccc3c(ccc4ccccc43)c2)cc1
Outline: (§1)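 K562 pellets were dounce-homogenised in PBS pH 7.4 with 1 mM MgCl2, and the crude extract at 1 mg/mL protein was treated with 10 μM compound for 30 min. Aliquots were heated for 3 min across 48°C-58°C, pooled, and brought to 0.5% NP-40 at 4°C; soluble protein was the supernatant after 21,000xg for 90 min. Soluble protein was quantified by TMTpro 16plex LC-MS/MS with channel sums equalised, and reported as log2 fold change in thermal stability against DMSO controls, with values from duplicates.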

vorinostat = compound: O=C(CCCCCCC(=O)Nc1ccccc1)NO [vorinostat]
Outline: as §1

silmitasertib = compound: O=C(O)c1ccc2c(c1)nc(Nc1cccc(Cl)c1)c1ccncc12 [silmitasertib]
Outline: as §1

[2] = compound: O=C1NC(=O)C(c2cnc3ccccn23)=C1c1cn2c3c(cc(F)cc13)CN(C(=O)N1CCCCC1)CC2
Outline: as §1

entospletinib = compound: c1cn2cc(-c3ccc4cn[nH]c4c3)nc(Nc3ccc(N4CCOCC4)cc3)c2n1 [entospletinib]
Outline: as §1

Target	log2 fold change [1]	log2 fold change (vorinostat)	log2 fold change (silmitasertib)	log2 fold change [2]	log2 fold change (entospletinib)
KIAA0319L (UniProt Q8IZA0)	inactive: -0.002	inactive: 0.116	inactive: -0.002	inactive: -0.008	inactive: -0.027
KIF21A isoform 5 (UniProt Q7Z4S6)	inactive: 0.005	active: -0.239	inactive: -0.004	inactive: 0.007	inactive: -0.058
KDM4B (UniProt O94953)	inactive: 0.181	inactive: -0.213	inactive: 0.062	inactive: -0.048	inactive: -0.078
KIAA1191 (UniProt Q96A73)	inactive: 0.097	inactive: 0.032	inactive: -0.028	inactive: -0.012	inactive: 0.037
KDSR (UniProt Q06136)	inactive: 0.033	inactive: 0.006	inactive: -0.066	inactive: -0.03	inactive: 0.061
LANCL1 (UniProt O43813)	inactive: -0.074	inactive: -0.029	inactive: -0.005	inactive: -0.019	inactive: 0.005
KIF14 (UniProt Q15058)	inactive: 0.082	active: -0.286	inactive: -0.016	inactive: -0.019	inactive: -0.055
KIF1C (UniProt O43896)	inactive: -0.201	inactive: -0.508	inactive: 0.083	inactive: 0.057	inactive: 0.001
KIF16B isoform 2 (UniProt Q96L93)	inactive: 0.071	inactive: -0.113	inactive: 0.131	inactive: 0.009	inactive: -0.348
LAMP1 (UniProt P11279)	inactive: 0.007	inactive: 0.095	inactive: -0.009	inactive: -0.05	inactive: -0.004
KRBA1 (UniProt A5PL33)	inactive: -0.036	inactive: -0.396	inactive: 0.032	inactive: -0.282	inactive: 0.061
LAMP2 (UniProt P13473)	inactive: -0.136	inactive: 0.17	inactive: -0.003	inactive: -0.034	inactive: -0.008
KPNA1 (UniProt P52294)	inactive: 0.004	inactive: -0.14	inactive: -0.003	inactive: -0.032	inactive: -0.006
KPNA2 (UniProt P52292)	inactive: -0.014	active: -0.376	inactive: 0.018	inactive: 0.009	inactive: 0.019
KIF2A isoform 4 (UniProt O00139)	inactive: -0.018	active: -0.518	inactive: 0.044	inactive: -0.015	inactive: -0.006
KIF5B (UniProt P33176)	inactive: -0.003	inactive: -0.114	inactive: -0.009	inactive: -0.007	inactive: 0.011
LAPTM4A (UniProt Q15012)	inactive: 0.073	–	–	–	–
KDM5B isoform 2 (UniProt Q9UGL1)	inactive: 0.11	inactive: 0.085	inactive: -0.018	inactive: 0.116	inactive: -0.037
KDM8 isoform 3 (UniProt Q8N371)	inactive: -0.003	inactive: -0.074	inactive: -0.069	inactive: -0.002	inactive: 0.028
KIF15 (UniProt Q9NS87)	inactive: 0.017	inactive: -0.136	inactive: 0.02	inactive: 0.004	inactive: -0.024
KDM5C (UniProt P41229)	inactive: 0.039	active: -0.282	inactive: 0.015	inactive: 0	inactive: 0.003
L3HYPDH (UniProt Q96EM0)	inactive: 0.023	active: -0.31	inactive: 0	inactive: -0.02	inactive: -0.005
LAMTOR1 (UniProt Q6IAA8)	inactive: -0.129	inactive: 0.151	inactive: 0.011	inactive: 0.026	inactive: -0.001
LACTB2 (UniProt Q53H82)	inactive: -0.004	inactive: 0.084	inactive: -0.02	inactive: -0.007	inactive: -0.011
KLF16 (UniProt Q9BXK1)	inactive: 0.169	inactive: -0.066	inactive: 0.066	inactive: -0.006	inactive: 0.055

Complete entries from above. Order of values: log2 fold change [1] | log2 fold change (vorinostat) | log2 fold change (silmitasertib) | log2 fold change [2] | log2 fold change (entospletinib)
LANCL1 (UniProt O43813) is listed with inactive: -0.074 | inactive: -0.029 | inactive: -0.005 | inactive: -0.019 | inactive: 0.005
LAMTOR1 (UniProt Q6IAA8) is listed with inactive: -0.129 | inactive: 0.151 | inactive: 0.011 | inactive: 0.026 | inactive: -0.001
